Data from publication PMC5492163.
These are yes or no findings as the source states them, for the method shown. In cells and extracts the contact can be indirect. Here binding means that the protein was enriched with, or labelled near, the bait; the list need not be complete. Values belong to the binder of their own block, whether it stands above or below them.

Target: T1, p140Cap (mouse (endogenous in synaptosomes of the telencephalon)) (UniProt Q9QWI6)
T1 sequence: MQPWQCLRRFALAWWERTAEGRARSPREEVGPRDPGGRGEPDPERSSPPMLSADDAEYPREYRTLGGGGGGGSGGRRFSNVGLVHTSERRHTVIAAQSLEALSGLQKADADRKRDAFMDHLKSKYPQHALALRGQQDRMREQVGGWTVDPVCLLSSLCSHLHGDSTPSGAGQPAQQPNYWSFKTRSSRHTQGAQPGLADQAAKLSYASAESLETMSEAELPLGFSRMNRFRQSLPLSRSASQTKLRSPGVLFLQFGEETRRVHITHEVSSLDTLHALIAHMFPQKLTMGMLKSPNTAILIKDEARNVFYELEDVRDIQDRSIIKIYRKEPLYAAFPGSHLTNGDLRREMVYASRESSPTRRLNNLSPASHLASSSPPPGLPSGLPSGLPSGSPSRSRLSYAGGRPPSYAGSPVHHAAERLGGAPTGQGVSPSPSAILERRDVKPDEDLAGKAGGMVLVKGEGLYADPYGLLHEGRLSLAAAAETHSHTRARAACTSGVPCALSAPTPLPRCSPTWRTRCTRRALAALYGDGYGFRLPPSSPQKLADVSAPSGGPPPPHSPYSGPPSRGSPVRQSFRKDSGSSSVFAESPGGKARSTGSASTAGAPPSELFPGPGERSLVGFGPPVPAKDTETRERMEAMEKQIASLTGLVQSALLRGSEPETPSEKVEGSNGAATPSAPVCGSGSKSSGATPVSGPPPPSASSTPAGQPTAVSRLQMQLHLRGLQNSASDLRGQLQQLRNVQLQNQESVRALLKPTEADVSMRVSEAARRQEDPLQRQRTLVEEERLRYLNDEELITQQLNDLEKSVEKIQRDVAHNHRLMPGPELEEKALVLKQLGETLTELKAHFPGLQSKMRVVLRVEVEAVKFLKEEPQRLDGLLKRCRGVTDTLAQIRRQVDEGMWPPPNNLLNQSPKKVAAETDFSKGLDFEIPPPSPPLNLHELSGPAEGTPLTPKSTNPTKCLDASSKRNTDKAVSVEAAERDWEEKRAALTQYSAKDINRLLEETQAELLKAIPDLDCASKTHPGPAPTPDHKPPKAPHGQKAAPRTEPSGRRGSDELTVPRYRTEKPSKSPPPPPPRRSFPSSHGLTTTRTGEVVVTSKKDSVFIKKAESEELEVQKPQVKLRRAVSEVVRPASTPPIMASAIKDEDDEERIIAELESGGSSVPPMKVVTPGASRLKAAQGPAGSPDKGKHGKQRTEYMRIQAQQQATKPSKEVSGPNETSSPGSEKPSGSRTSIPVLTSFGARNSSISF
Test: affinity purification with mass spectrometry; p140Cap immunoprecipitated with Mab 2A8 cross-linked to protein G Dynabeads from 6 mg crude synaptosomal extract of WT mice (p140Cap KO as negative control), 2 h at 4°C, lysis buffer 150 mM NaCl, 50 mM Tris pH 7, 1% NP-40; label-free nanoLC-MS/MS, iBAQ, FDR 1% and at least 4-fold enrichment over KO

binding: binds
B1: CASK (protein, UniProt O70589 1-926)
chain: MADDDVLFEDVYELCEVIGKGPFSVVRRCINRETGQQFAVKIVDVAKFTSSPGLSTEDLKREASICHMLKHPHIVELLETYSSDGMLYMVFEFMDGADLCFEIVKRADAGFVYSEAVASHYMRQILEALRYCHDNNIIHRDVKPHCVLLASKENSAPVKLGGFGVAIQLGESGLVAGGRVGTPHFMAPEVVKREPYGKPVDVWGCGVILFILLSGCLPFYGTKERLFEGIIKGKYKMNPRQWSHISESAKDLVRRMLMLDPAERITVYEALNHPWLKERDRYAYKIHLPETVEQLRKFNARRKLKGAVLAAVSSHKFNSFYGDPPEELPDFSEDPTSSGLLAAERAVSQVLDSLEEIHALTDCSEKDLDFLHSVFQDQHLHTLLDLYDKINTKSSPQIRNPPSDAVQRAKEVLEEISCYPENNDAKELKRILTQPHFMALLQTHDVVAHEVYSDEALRVTPPPTSPYLNGDSPESANGDMDMENVTRVRLVQFQKNTDEPMGITLKMNELNHCIVARIMHGGMIHRQGTLHVGDEIREINGISVANQTVEQLQKMLREMRGSITFKIVPSYRTQSSSCERDSPSTSRQSPANGHSSTNNSVSDLPSTTQPKGRQIYVRAQFEYDPAKDDLIPCKEAGIRFRVGDIIQIISKDDHNWWQGKLENSKNGTAGLIPSPELQEWRVACIAMEKTKQEQQASCTWFGKKKKQYKDKYLAKHNAVFDQLDLVTYEEVVKLPAFKRKTLVLLGAHGVGRRHIKNTLITKHPDRFAYPIPHTTRPPKKDEENGKNYYFVSHDQMMQDISNNEYLEYGSHEDAMYGTKLETIRKIHEQGLIAILDVEPQALKVLRTAEFAPFVVFIAAPTITPGLNEDESLQRLQKESDVLQRTYAHYFDLTIINNEIDETIRHLEEAVELVCTAPQWVPVSWVY

binding: binds
B2: CTNND2 (δ-catenin) (protein, UniProt O35927 1-1247)
chain: MFARKQSGAAPFGAMPVPDQPPSASEKNSSLSPGLNTSNGDGSETETTSAILASVKEQELQFERLTRELEAERQIVASQLERCKLGSETGSMSSISSAGEQFHWQTQDGQKDIEDELTTGLELVDSCIRSLQESGILDPQDYSTSERPSLLSQSALQLNSKPEGSFQYPASYHSNQTLALGDTAPSQLPARSTQARAAGQSFSQGTTGRAGHLAGSEPAPPPPPPREPFAPSLGSAFHLPDAPPAAAALYYSSSTLPAPPRGGSPLTTTQGGSPTKLQRGGSAPEGAAYAAPRGSSPKQSPSRLAKSYSTSSPINIVVSSAGLSPIRVTSPPTVQSTISSSPIHQLSSTIGTYATLSPTKRLVHASEQYSKHSQELYATATLQRPGSLAAGSRASYSSQHGHLAPELRALQSPEHHIDPIYEDRVYQKPPMRSLSQSQGDPLPPAHTGTFRTSTAPSSPGVDSVPLQRTGSQHGPQNAAAATFQRASYAAGPASNYADPYRQLQYCASVDSPYSKSGPALPPEGTLARSPSIDSIQKDPREFGWRDPELPEVIQMLQHQFPSVQSNAAAYLQHLCFGDNKIKAEIRRQGGIQLLVDLLDHRMTEVHRSACGALRNLVYGKANDDNKIALKNCGGIPALVRLLRKTTDLEIRELVTGVLWNLSSCDALKMPIIQDALAVLTNAVIIPHSGWENSPLQDDRKIQLHSSQVLRNATGCLRNVSSAGEEARRRMRECDGLTDALLYVIQSALGSSEIDSKTVENCVCILRNLSYRLAAETSQGQHMGTDELDGLLCGETNGKDTESSGCWGKKKKKKKSQDQWDGVGPLPDCAEPPKGIQMLWHPSIVKPYLTLLSECSNPDTLEGAAGALQNLAAGSWKGWAEDVAGMAYALRSLPEGAPCLPQWSVYIRAAVRKEKGLPILVELLRIDNDRVVCAVATALRNMALDVRNKELIGKYAMRDLVHRLPGGNNSNNSGSKAMSDDTVTAVCCTLHEVITKNMENAKALRDAGGIEKLVGISKSKGDKHSPKVVKAASQVLNSMWQYRDLRSLYKKDGWSQYHFVASSSTIERDRQRPYSSSRTPSISPVRVSPNNRSASAPASPREMISLKERKTDYESAGNNATYHGTKGEHTSRKDTMTAQNTGVSTLYRNSYGAPAEDIKQNQVSTQPVPQEPSRKDYETYQPFPNSTRNYDESFFEDQVHHRPPASEYTMHLGLKSTGNYVDFYSAARPYSELNYETSHYPASPDSWV
